The target in experiment [1] is T1, GST-fused LRP6 PPPAPxS (residues 1485–1497 of human LRP6, S1490A), treated with GSK3β and CK1 (human) (UniProt O75581).
T1 sequence: LNPPPAPATERSH
In words: far-Western, overlay or dot blot; GST-fused LRP6 fragments (with or without prior treatment with GSK3β and CK1) run on SDS-PAGE and transferred to PVDF; membrane incubated 3 h with 1 µg/ml GSK3β in 5% skim milk in TBST (20 mM Tris pH 7.6, 137 mM NaCl, 0.05% Tween 20); bound GSK3β detected with anti-GSK3β antibody; both purified.

Sequences of proteins named here, by UniProt entry; tags and fusion partners are left off. A change or cut given only in a name is not applied to a line headed by its entry. Residues count along the entry.
UniProt O75581: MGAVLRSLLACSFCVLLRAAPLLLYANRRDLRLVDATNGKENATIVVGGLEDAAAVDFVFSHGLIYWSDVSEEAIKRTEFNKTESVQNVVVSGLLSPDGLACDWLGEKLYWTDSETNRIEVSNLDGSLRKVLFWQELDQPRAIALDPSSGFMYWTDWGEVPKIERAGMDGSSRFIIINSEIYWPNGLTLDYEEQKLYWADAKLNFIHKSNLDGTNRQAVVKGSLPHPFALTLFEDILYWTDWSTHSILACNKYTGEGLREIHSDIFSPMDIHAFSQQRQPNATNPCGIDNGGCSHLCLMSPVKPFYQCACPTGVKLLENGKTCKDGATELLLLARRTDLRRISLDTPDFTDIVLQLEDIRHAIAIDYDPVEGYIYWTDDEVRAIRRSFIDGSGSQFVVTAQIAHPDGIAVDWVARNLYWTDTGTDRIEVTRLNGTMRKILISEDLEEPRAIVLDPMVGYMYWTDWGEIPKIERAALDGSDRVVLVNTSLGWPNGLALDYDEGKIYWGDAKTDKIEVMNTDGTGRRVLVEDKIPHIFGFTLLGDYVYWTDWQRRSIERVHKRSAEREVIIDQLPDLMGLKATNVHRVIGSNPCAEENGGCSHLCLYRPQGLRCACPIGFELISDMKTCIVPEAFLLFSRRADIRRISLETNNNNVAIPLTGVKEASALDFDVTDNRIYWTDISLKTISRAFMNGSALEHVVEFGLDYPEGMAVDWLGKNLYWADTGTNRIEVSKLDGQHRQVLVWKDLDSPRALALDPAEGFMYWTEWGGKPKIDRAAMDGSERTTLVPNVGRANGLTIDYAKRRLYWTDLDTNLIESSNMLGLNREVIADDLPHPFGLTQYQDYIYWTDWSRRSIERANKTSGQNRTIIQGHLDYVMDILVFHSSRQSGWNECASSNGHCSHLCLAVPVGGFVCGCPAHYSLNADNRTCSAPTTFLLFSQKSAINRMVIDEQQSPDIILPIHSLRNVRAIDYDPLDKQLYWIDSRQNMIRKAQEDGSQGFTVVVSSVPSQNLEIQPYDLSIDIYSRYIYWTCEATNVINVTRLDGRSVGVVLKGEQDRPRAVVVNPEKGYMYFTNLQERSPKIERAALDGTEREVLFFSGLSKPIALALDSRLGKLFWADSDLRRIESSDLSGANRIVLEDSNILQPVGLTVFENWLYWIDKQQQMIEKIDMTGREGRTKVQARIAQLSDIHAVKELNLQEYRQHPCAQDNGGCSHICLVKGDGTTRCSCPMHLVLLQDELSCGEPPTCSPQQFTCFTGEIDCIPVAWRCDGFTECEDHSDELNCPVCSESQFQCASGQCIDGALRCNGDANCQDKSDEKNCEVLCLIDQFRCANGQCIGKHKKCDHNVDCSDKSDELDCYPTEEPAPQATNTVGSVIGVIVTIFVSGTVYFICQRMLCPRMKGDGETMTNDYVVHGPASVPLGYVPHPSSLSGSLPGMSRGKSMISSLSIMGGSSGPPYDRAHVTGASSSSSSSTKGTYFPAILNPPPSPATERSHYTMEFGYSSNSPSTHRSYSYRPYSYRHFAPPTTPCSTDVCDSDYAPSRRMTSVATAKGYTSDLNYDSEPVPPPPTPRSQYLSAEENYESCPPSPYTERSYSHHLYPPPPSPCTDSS
UniProt Q9WV60, residues 27-393: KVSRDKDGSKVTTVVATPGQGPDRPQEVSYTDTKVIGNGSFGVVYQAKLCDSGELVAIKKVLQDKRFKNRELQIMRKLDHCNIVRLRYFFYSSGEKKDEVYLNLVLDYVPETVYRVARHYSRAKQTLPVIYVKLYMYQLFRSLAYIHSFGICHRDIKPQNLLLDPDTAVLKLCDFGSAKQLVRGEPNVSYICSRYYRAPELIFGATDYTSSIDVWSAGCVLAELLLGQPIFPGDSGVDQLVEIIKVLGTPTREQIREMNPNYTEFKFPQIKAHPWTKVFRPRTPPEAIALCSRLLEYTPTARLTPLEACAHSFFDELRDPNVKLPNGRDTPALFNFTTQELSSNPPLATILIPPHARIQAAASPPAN

Experiment [2] deals with T2, GST-fused LRP6 PPPSPxS (residues 1485–1497 of human LRP6), treated with GSK3β and CK1 (human) (UniProt O75581).
T2 sequence: LNPPPSPATERSH
The experiment is described as above.

For one substance, binding results are on record in article PMC2603313, “Direct Inhibition of GSK3β by the Phosphorylated Cytoplasmic Domain of LRP6 in Wnt/β-Catenin Signaling” (PLoS ONE, 2008).

These are yes or no findings as the source states them, for the method shown. Where a sequence is shown, tags or fusion partners need not be part of it.

With “catalytic domain of mouse GSK3β (residues 27–393) (from UniProt Q9WV60 27-393) (enzyme)”, the binding result in experiment [1] and in experiment [2] was “no binding (tested: 1 µg/ml of GSK3β)” in each case.
